In all, about 320,000 compounds went through this assay and about 22,000 (6.9%) were called active. Inconclusive results, whose numbers are uncertain, are shown with a selection of clear calls. The call rests on the fitted dose curve; in most records, active means well fitted inhibition curve with a large enough effect; inconclusive means small, poorly fitted or top-dose-only effect, or another doubt; inactive means no such curve, though single readings can be large or run the other way. Potencies of inconclusive entries are doubtful fits and often do not repeat.
assay: Primary qHTS for delayed death inhibitors of the malarial parasite plastid, 96 hour incubation; conditions: P. falciparum luciferase reporter growth; series mostly up to 28.7 µM
In short: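 Two parasite generations (96 h, 37 C, 5% CO2) of compound exposure in infected erythrocytes (0.05% parasitemia, 2% hematocrit). Luciferase-reporter P. falciparum; decreased luminescence indicates inhibited growth, aimed at apicoplast-acting delayed death.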
Potency means the concentration at half of the fitted maximal effect.

Structure (SMILES)	Potency
Cc1ccc(/C=N/c2sc3c(c2C#N)CCC3)o1	inconclusive: 18.5 µM [inhibitor, single point]
CC(=O)c1c(O)c2ccccc2n(C(C)C)c1=O	inconclusive: 18.5 µM [inhibitor, single point]
C#C[C@]1(OC(C)=O)CC[C@H]2[C@@H]3CCC4=C/C(=N/O)CC[C@@H]4[C@H]3CC[C@@]21CC	active: 0.953 µM
Cn1c(=O)c(=O)n(C)c2cc(S(=O)(=O)N3CCN(Cc4ccccc4)CC3)ccc21	inconclusive: 5.22 µM [inhibitor, partial curve]
CCOP(=O)(OCC)C(NC(=O)Nc1ccc(Cl)cc1)c1ccccc1 (stereo not drawn)	inactive
CN(C)CCn1c(=O)n(-c2ccc(F)cc2)c(=O)c2c3c(sc21)CCCCC3	inconclusive: 14.7 µM [inhibitor, partial curve, poor fit]
COc1ccc(OC)c(C2CC(=O)c3c([nH]c(C(=O)OCC4CCCO4)c3C)C2)c1 (stereo not drawn)	inconclusive: 18.5 µM [inhibitor, single point]
CS(=O)(=O)N1CCc2cc(C(=O)Nc3ccc(COCC(F)(F)F)cc3)ccc21	inconclusive: 18.5 µM [inhibitor, single point]
c1ccc(CNCCNCc2ccccc2)cc1	inconclusive: 8.49 µM [inhibitor, partial curve]
CCOc1ccc(NC(=O)CN(C)C(=O)C2CSC3(C)CCC(=O)N23)cc1OCC (stereo not drawn)	inconclusive: 18.5 µM [inhibitor, partial curve, poor fit]
O=C(C1CCCC1)N1CCC(CC2CC(c3ccc(Cl)cc3)=NO2)(C(=O)NCC2CCCCC2)CC1 (stereo not drawn)	active: 1.04 µM
CN1CCC(=O)N([C@H](CN=[N+]=[N-])Cc2ccccc2)CC1	inactive
CC(C)C1O/C(=N/C(=O)Nc2ccc(Cl)c(Cl)c2)NC1=O (stereo not drawn)	inconclusive: 18.5 µM [inhibitor, single point]
Brc1ccc(N=C/C=C/C=C/Nc2ccc(Br)cc2)cc1	inconclusive: 0.0329 µM [inhibitor, full curve, poor fit]
O=C(COc1cccnc1[N+](=O)[O-])Nc1ccc(Cl)c(S(=O)(=O)N2CCOCC2)c1	inconclusive: 10.4 µM [inhibitor, single point]
Cc1ccc(C(=O)C(C)OC(=O)CCN2C(=O)C3C4C=CC(C5CC45)C3C2=O)cc1 (stereo not drawn)	inactive
Cc1ccccc1-n1c(SCc2cc(=O)n3ccccc3n2)nc2[nH]ncc2c1=O	active: 13.1 µM
Cc1ccc(OCC(O)Cn2c(=N)n(Cc3ccccc3)c3ccccc32)cc1 (stereo not drawn)	active: 3.7 µM
CCc1ccccc1NC(=S)NC1CC2CCC(C1)N2Cc1ccco1 (stereo not drawn)	inconclusive: 18.5 µM [inhibitor, single point]
COc1cccc(CNC(=O)C(=O)NCCC2CCCCN2S(=O)(=O)c2cccs2)c1 (stereo not drawn)	inconclusive: 16.5 µM [inhibitor, single point]
CCCCCC(=O)Nc1ccc(-c2csc(C)n2)cc1	inactive
CC(NC(=O)CN1CCN(CC(=O)Nc2ccccc2Cl)CC1)c1ccc(Br)cc1 (stereo not drawn)	inconclusive: 18.5 µM [inhibitor, single point]

A section from the list above, for reference:
Structure (SMILES)	Potency
Cc1ccc(C(=O)C(C)OC(=O)CCN2C(=O)C3C4C=CC(C5CC45)C3C2=O)cc1 (stereo not drawn)	inactive
Cc1ccccc1-n1c(SCc2cc(=O)n3ccccc3n2)nc2[nH]ncc2c1=O	active: 13.1 µM

More results follow.

Structure (SMILES)	Potency
Cc1ccccc1-c1noc(CNC(=O)COc2ccccc2)n1	inconclusive: 11.7 µM [inhibitor, single point]
O=C(COC(=O)[C@H](Cc1ccccc1)NC(=O)c1cccs1)NC1CCCCC1	inactive
COc1ccc(-c2c(-c3cc(OC)cc(OC)c3)n(C)c3ccc(-c4cc(F)cc(OC)c4)cc23)cc1	inconclusive: 11.7 µM [inhibitor, single point]
CCN(CC)CCN(Cc1cc2cc3c(cc2[nH]c1=O)OCCO3)C(=S)NCC1CCCO1 (stereo not drawn)	inactive
CCCCC(CC)C(=O)Nc1ccc(Nc2ccccc2)cc1 (stereo not drawn)	inconclusive: 11.7 µM [inhibitor, partial curve, poor fit]
CCOC(=O)c1c(NC(=O)c2ccc(N3C(=O)[C@@H]4[C@H](C3=O)[C@H]3C=C[C@@H]4C3)cc2)sc2c1CCCC2	inconclusive: 18.5 µM [inhibitor, single point]
CCN(C(=O)C(=O)c1c[nH]c2ccccc12)c1ccccc1	inconclusive: 16.5 µM [inhibitor, single point]
COc1ccccc1N1CCN(Cc2nc3ccccc3c(=O)n2CC(C)=O)CC1	inconclusive: 20.8 µM [inhibitor, partial curve, poor fit]
CC(C)(C)NS(=O)(=O)c1cccc(S(=O)(=O)c2cccc(S(=O)(=O)NC(C)(C)C)c2)c1	inconclusive: 0.117 µM [inhibitor, full curve, poor fit]
COc1ccc2[nH]c(CN3CCN(CC=C(C)C)C(CCO)C3)c(C)c2c1 (stereo not drawn)	inconclusive: 18.5 µM [inhibitor, single point]
Cc1cc2c(cc1C)NC(c1c(C)n(C)n(-c3ccccc3)c1=O)C1=C(CC(C)(C)CC1=O)N2 (stereo not drawn)	active: 10.4 µM
CCNC(=O)CSc1nnc(-c2cc(-c3ccc(Cl)cc3)nc3ccccc23)o1	inconclusive: 18.5 µM [inhibitor, single point]
O=C(O/N=C(\c1ccccc1)c1ccccn1)c1cccc2ccccc12	active: 9.28 µM
O=C(NCc1cccs1)C1CCN(c2nc3ccccc3o2)CC1	inconclusive: 9.28 µM [inhibitor, partial curve]
CN(C)/C=C(\C#N)C(=O)N/N=C(\CC(=O)C(F)(F)F)c1ccco1	inactive
CCOc1cc(C(F)(F)F)cnc1/C(N)=N/O	inactive
COc1ccc(-c2cn(-c3ccc(SC(F)F)cc3)c3[n+]2CCC3)cc1OC	inconclusive: 0.147 µM [inhibitor, full curve, poor fit]
CC1=CC(C2CC(=O)N(c3ccccc3C)C2=O)CC2C(=O)N(c3ccccc3C)C(=O)C12 (stereo not drawn)	inactive
NS(=O)(=O)c1ccc(-c2ccc(C=C3C(=O)NC(=O)NC3=O)o2)cc1	inactive
Cc1nc(N2CCN(C(=O)COc3ccccc3)CC2)c2c(C)c(C)sc2n1	inactive
Cc1[nH]n(-c2ccccc2)c(=O)c1C(=O)c1ccc([N+](=O)[O-])cc1	inactive
